Results: patent US9546129B2, “DTPA prodrugs, compositions thereof, and methods of using the same” (priority 2012, dated 2017)
Some results were stated once for a whole list of compounds, not compound by compound. For at least one compound, name, drawing or mass did not settle the structure.

Experiment: 10-day repeat-dose toxicity and toxicokinetics study in dogs
Assay type: in vivo, Beagle dog
Details: dogs after oral C2E2 60-600 mg/kg/day
Method: An exploratory study was conducted to evaluate the toxicity and to determine the toxicokinetics of the test article, C2E2, when administered to dogs via 10 daily oral gavage doses. Groups of 2 Beagle dogs/sex were administered C2E2 via oral gavage at dose levels of 0, 60, 200, 400, or 600 mg/kg. The vehicle was reverse osmosis water and the dose volume was 8 mL/kg. Assessment of toxicity was based on mortality, clinical observations, body weight, food consumption, clinical pathology, gross pathology, organ weights, histopathology of selected tissues, and plasma essential trace elements analysis. Blood samples were collected on Days 1 and 10 for toxicokinetic evaluations of C2E2, C2E1, DTPA and C2E3. C2E3 is believed to be an impurity in the C2E2 lot used.

Compound	Ratio of AUC0-24 compared to that of C2E2 (systemic exposure relative to C2E2)
CCOC(=O)CN(CCN(CCN(CC(=O)O)CC(=O)O)CC(=O)O)CC(=O)O [C2E1]	< 1%
diethylenetriamine pentaacetic acid [DTPA]	< 1%
